Reference: the supplement of paper PMC4604168 (melanoma cell lines)
This is one part of the list. Single values are uncertain, as repeats are few or missing.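 The apoptosis fraction was the count of cleaved-PARP antibody-stained nuclei relative to all DNA-stained nuclei, imaged in 1,536-well plates. Screening doses were set so most cells survived, and baseline and induced cleaved-PARP levels vary greatly across cell lines.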

Experiments:
Assay in all cases: cleaved PARP positive nuclei fraction relative to DMSO control; melanoma cells; higher = more apoptosis
Settings in all cases: library dose: low library concentration; 72 h
[1] = system: WM115
[2] = system: WM1716
[3] = system: WM1745
[4] = system: WM3526
[5] = system: WM3619
[6] = system: WM451Lu

Compound	cleaved PARP positive nuclei fraction [1]	cleaved PARP positive nuclei fraction [2]	cleaved PARP positive nuclei fraction [3]	cleaved PARP positive nuclei fraction [4]	cleaved PARP positive nuclei fraction [5]	cleaved PARP positive nuclei fraction [6]
NCC(=O)Nc1ccc(-n2nc(C(F)(F)F)cc2-c2ccc3c(ccc4ccccc43)c2)cc1 + Cn1cc(/C=C2\C(=O)Nc3cccnc32)c2ccccc21 [GW441756] (first compound 1 µM, partner dose 0.4 µM)	231%	89.1%	117%	349%	68.9%	533%
O=C(O)c1ccc(-c2c[nH]c3ncc(-c4ccccc4)cc23)cc1C1CCCC1 + CCN(CC)CCCCNc1ncc2cc(-c3cc(OC)cc(OC)c3)c(NC(=O)NC(C)(C)C)nc2n1 [PD173074] (first compound 0.16 µM, partner dose 0.1 µM)	96.9%	164%	103%	156%	83.2%	64.9%
COc1cc2c(Oc3ccc4[nH]c(C)cc4c3F)ncnc2cc1OCCCN1CCCC1 [cediranib] + Oc1nc(-c2ccc(C(F)(F)F)cc2)nc2c1CSCC2 [XAV939] (first compound 0.4 µM, partner dose 2 µM)	55%	194%	123%	64.5%	78.6%	108%
Oc1cc(-c2nc(-c3ccccc3)[nH]c2-c2ccncc2)ccc1Cl + Cn1cc(/C=C2\C(=O)Nc3cccnc32)c2ccccc21 [GW441756] (first compound 0.2 µM, partner dose 0.4 µM)	282%	40%	123%	95.4%	88%	104%
CCN(CC)CCCCNc1ncc2cc(-c3cc(OC)cc(OC)c3)c(NC(=O)NC(C)(C)C)nc2n1 + O=c1cc(-c2cccc3c2Sc2ccccc2S3)oc(N2CCOCC2)c1 [KU55933] (first compound 0.1 µM, partner dose 1 µM)	66.8%	65.4%	114%	81.9%	97.2%	540%
COc1ccc2c(c1)CCC1C2CCC2(C)C(NCCCCCCN3C(=O)C=CC3=O)CCC12 (configuration not stated) + c1cc(-c2cnn3cc(-c4ccc(OCCN5CCCCC5)cc4)cnc23)ccn1 [Dorsomorphin] (first compound 0.4 µM, partner dose 0.4 µM)	392%	128%	115%	72.7%	77.2%	130%
NCC(=O)Nc1ccc(-n2nc(C(F)(F)F)cc2-c2ccc3c(ccc4ccccc43)c2)cc1 + COc1cc2ncnc(Nc3ccc(Oc4ccccc4)cc3)c2cc1OC [SrcI1] (first compound 1 µM, partner dose 2 µM)	56.1%	391%	101%	362%	95.3%	242%
CCN(CC)CCCCNc1ncc2cc(-c3cc(OC)cc(OC)c3)c(NC(=O)NC(C)(C)C)nc2n1 + CC(C)CCN1c2nc(Nc3cc(F)c(O)c(F)c3)ncc2N(C)C(=O)C1C [BID1870] (first compound 0.1 µM, partner dose 0.2 µM)	76.5%	76.5%	112%	36.9%	71.7%	84.5%
COc1ccc(-c2ccc3c(N4CCOCC4)nc(N4C[C@@H](C)O[C@@H](C)C4)nc3n2)cc1CO + COc1cc2ncnc(Nc3ccc(Oc4ccccc4)cc3)c2cc1OC [SrcI1] (first compound 0.02 µM, partner dose 2 µM)	141%	65.7%	116%	107%	115%	112%
CN(NC(=O)CC(=O)NN(C)C(=S)c1ccccc1)C(=S)c1ccccc1 + N#Cc1c(O)c2c(-c3ccc(-c4ccccc4O)cc3)csc2[nH]c1=O [A769662] (first compound 0.006 µM, partner dose 2 µM)	116%	186%	176%	70.4%	109%	102%
COc1cc(N2CCC(N3CCN(C)CC3)CC2)ccc1Nc1ncc(Cl)c(Nc2ccccc2S(=O)(=O)C(C)C)n1 + CC(C)CCN1c2nc(Nc3cc(F)c(O)c(F)c3)ncc2N(C)C(=O)C1C [BID1870] (first compound 0.08 µM, partner dose 0.2 µM)	156%	114%	175%	86.5%	98%	119%
COc1ccc(-c2ccc3c(N4CCOCC4)nc(N4C[C@@H](C)O[C@@H](C)C4)nc3n2)cc1CO + O=C1NC(=O)/C(=C/c2ccc(-c3ccc(F)cc3O)o2)S1 [AS252424] (first compound 0.02 µM, partner dose 1 µM)	152%	62.1%	113%	301%	91.2%	53.3%
Oc1cc(-c2nc(-c3ccccc3)[nH]c2-c2ccncc2)ccc1Cl + O=C1NC(=O)/C(=C/c2ccc(-c3ccc(F)cc3O)o2)S1 [AS252424] (first compound 0.2 µM, partner dose 1 µM)	639%	61.4%	107%	416%	140%	87%
NCC(=O)Nc1ccc(-n2nc(C(F)(F)F)cc2-c2ccc3c(ccc4ccccc43)c2)cc1 + COc1ccc(COc2ccc(Cc3cnc(N)nc3N)cc2OC)cc1 [GW2580] (first compound 1 µM, partner dose 1 µM)	162%	120%	114%	123%	145%	196%
O=C(O)c1ccc(-c2c[nH]c3ncc(-c4ccccc4)cc23)cc1C1CCCC1 + Cc1cc([N+](=O)[O-])ccc1NS(=O)(=O)c1cc(Cl)ccc1Cl [FH535] (first compound 0.16 µM, partner dose 1 µM)	175%	179%	114%	91.8%	325%	207%
CN(NC(=O)CC(=O)NN(C)C(=S)c1ccccc1)C(=S)c1ccccc1 + c1cc(-c2cnn3cc(-c4ccc(OCCN5CCCCC5)cc4)cnc23)ccn1 [Dorsomorphin] (first compound 0.006 µM, partner dose 0.4 µM)	332%	117%	191%	146%	161%	55.4%
CN(C)S(=O)(=O)c1ccc2c(c1)/C(=C/c1cc3c([nH]1)CCCC3)C(=O)N2 + COc1ccc2c(c1)CCC1C2CCC2(C)C(NCCCCCCN3C(=O)C=CC3=O)CCC12 [U73122] (first compound 0.4 µM, partner dose 0.4 µM)	100%	185%	126%	66.9%	81.6%	97.5%
CCc1ccc(CCOc2ccc(CC3SC(=O)NC3=O)cc2)nc1 (configuration not stated) [pioglitazone] + Oc1nc(-c2ccc(C(F)(F)F)cc2)nc2c1CSCC2 [XAV939] (first compound 2 µM, partner dose 2 µM)	117%	163%	137%	143%	89.9%	45.7%
CN(NC(=O)CC(=O)NN(C)C(=S)c1ccccc1)C(=S)c1ccccc1 + O=S(=O)(c1ccccc1)N(CC(F)(F)F)c1ccc(C(O)(C(F)(F)F)C(F)(F)F)cc1 [T0901317] (first compound 0.006 µM, partner dose 1.4 µM)	92.9%	219%	174%	79.9%	119%	53.3%
CN(C)S(=O)(=O)c1ccc2c(c1)/C(=C/c1cc3c([nH]1)CCCC3)C(=O)N2 + Cn1cc(/C=C2\C(=O)Nc3cccnc32)c2ccccc21 [GW441756] (first compound 0.4 µM, partner dose 0.4 µM)	147%	87.6%	91.1%	59.7%	69.1%	17.9%
CCc1ccc(CCOc2ccc(CC3SC(=O)NC3=O)cc2)nc1 (configuration not stated) [pioglitazone] + O=C(O)C(=O)Nc1sc2c(c1C(=O)O)CCNC2 [TCS401] (first compound 2 µM, partner dose 1.66667 µM)	145%	38%	127%	96.2%	65.6%	55.7%
COC(=O)c1sccc1S(=O)(=O)Nc1ccc(Nc2ccccc2)cc1OC + CCN(CC)CCCCNc1ncc2cc(-c3cc(OC)cc(OC)c3)c(NC(=O)NC(C)(C)C)nc2n1 [PD173074] (first compound 1 µM, partner dose 0.1 µM)	154%	56.6%	112%	53.3%	80.8%	211%
CN(NC(=O)CC(=O)NN(C)C(=S)c1ccccc1)C(=S)c1ccccc1 + Oc1cc(-c2nc(-c3ccccc3)[nH]c2-c2ccncc2)ccc1Cl [L779450] (first compound 0.006 µM, partner dose 0.2 µM)	177%	93.5%	523%	80.2%	121%	53%
COC(=O)c1sccc1S(=O)(=O)Nc1ccc(Nc2ccccc2)cc1OC + O=c1cc(-c2cccc3c2Sc2ccccc2S3)oc(N2CCOCC2)c1 [KU55933] (first compound 1 µM, partner dose 1 µM)	137%	75.6%	107%	139%	106%	64.2%
CN(NC(=O)CC(=O)NN(C)C(=S)c1ccccc1)C(=S)c1ccccc1 + COc1cc2c(Oc3ccc4[nH]c(C)cc4c3F)ncnc2cc1OCCCN1CCCC1 [cediranib] (first compound 0.006 µM, partner dose 0.4 µM)	110%	68%	200%	56.7%	183%	41.6%
O=C(O)c1ccc(-c2c[nH]c3ncc(-c4ccccc4)cc23)cc1C1CCCC1 + N#Cc1c(O)c2c(-c3ccc(-c4ccccc4O)cc3)csc2[nH]c1=O [A769662] (first compound 0.16 µM, partner dose 2 µM)	157%	115%	97.9%	74.5%	81.3%	406%
COc1ccc2c(c1)CCC1C2CCC2(C)C(NCCCCCCN3C(=O)C=CC3=O)CCC12 (configuration not stated) + Cn1cc(/C=C2\C(=O)Nc3cccnc32)c2ccccc21 [GW441756] (first compound 0.4 µM, partner dose 0.4 µM)	219%	42.2%	115%	55.5%	89.5%	107%

As a working copy, part of the list above:
Compound	cleaved PARP positive nuclei fraction [1]	cleaved PARP positive nuclei fraction [2]	cleaved PARP positive nuclei fraction [3]	cleaved PARP positive nuclei fraction [4]	cleaved PARP positive nuclei fraction [5]	cleaved PARP positive nuclei fraction [6]
NCC(=O)Nc1ccc(-n2nc(C(F)(F)F)cc2-c2ccc3c(ccc4ccccc43)c2)cc1 + COc1ccc(COc2ccc(Cc3cnc(N)nc3N)cc2OC)cc1 [GW2580] (first compound 1 µM, partner dose 1 µM)	162%	120%	114%	123%	145%	196%
O=C(O)c1ccc(-c2c[nH]c3ncc(-c4ccccc4)cc23)cc1C1CCCC1 + Cc1cc([N+](=O)[O-])ccc1NS(=O)(=O)c1cc(Cl)ccc1Cl [FH535] (first compound 0.16 µM, partner dose 1 µM)	175%	179%	114%	91.8%	325%	207%
CN(NC(=O)CC(=O)NN(C)C(=S)c1ccccc1)C(=S)c1ccccc1 + c1cc(-c2cnn3cc(-c4ccc(OCCN5CCCCC5)cc4)cnc23)ccn1 [Dorsomorphin] (first compound 0.006 µM, partner dose 0.4 µM)	332%	117%	191%	146%	161%	55.4%
CN(C)S(=O)(=O)c1ccc2c(c1)/C(=C/c1cc3c([nH]1)CCCC3)C(=O)N2 + COc1ccc2c(c1)CCC1C2CCC2(C)C(NCCCCCCN3C(=O)C=CC3=O)CCC12 [U73122] (first compound 0.4 µM, partner dose 0.4 µM)	100%	185%	126%	66.9%	81.6%	97.5%
CCc1ccc(CCOc2ccc(CC3SC(=O)NC3=O)cc2)nc1 (configuration not stated) [pioglitazone] + Oc1nc(-c2ccc(C(F)(F)F)cc2)nc2c1CSCC2 [XAV939] (first compound 2 µM, partner dose 2 µM)	117%	163%	137%	143%	89.9%	45.7%
CN(NC(=O)CC(=O)NN(C)C(=S)c1ccccc1)C(=S)c1ccccc1 + O=S(=O)(c1ccccc1)N(CC(F)(F)F)c1ccc(C(O)(C(F)(F)F)C(F)(F)F)cc1 [T0901317] (first compound 0.006 µM, partner dose 1.4 µM)	92.9%	219%	174%	79.9%	119%	53.3%
CN(C)S(=O)(=O)c1ccc2c(c1)/C(=C/c1cc3c([nH]1)CCCC3)C(=O)N2 + Cn1cc(/C=C2\C(=O)Nc3cccnc32)c2ccccc21 [GW441756] (first compound 0.4 µM, partner dose 0.4 µM)	147%	87.6%	91.1%	59.7%	69.1%	17.9%
